Experimental data as given in publication PMC11910503, “Novel metal sites revealed by spectroscopic and structural characterization of the ferric uptake regulator from Acidithiobacillus ferrooxidans”.
Positions count from the first letter of the chain named. No signal at the amounts used counts as a negative. Where a protein sequence is shown, tags need not be part of it. For part of these data: Construct, isoform or probe ends are uncertain for at least one entry.

Columns and labels:
[1] = molecular target: T1, AfFur WT (Acidithiobacillus ferrooxidans ATCC 23270) (UniProt B7J425); experiment: EMSA; conditions: 10 mM Tris pH 7.5, 50 mM KCl, 5 mM MgCl2, 0.1 mM MnCl2, 1 mM DTT, 2.5% glycerol, 50 ng/uL poly(dI-dC), 0.05% NP-40, 20 fmol probe, 2.9-3.9 ug protein in 20 uL, recombinant protein, protein details: N-terminal His6 (pLATE51), label: 5' biotin
T1 sequence (looked up, limits assumed): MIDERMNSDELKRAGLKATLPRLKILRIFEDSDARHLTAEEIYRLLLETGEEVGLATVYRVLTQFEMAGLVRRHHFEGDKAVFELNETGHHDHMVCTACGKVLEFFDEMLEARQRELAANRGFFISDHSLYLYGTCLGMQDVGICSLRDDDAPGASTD

[2] = molecular target: T2, AfFur H91K (Acidithiobacillus ferrooxidans ATCC 23270) (UniProt B7J425); experiment: EMSA; conditions: + EDTA (1 mM); 10 mM Tris pH 7.5, 50 mM KCl, 5 mM MgCl2, 0.1 mM MnCl2, 1 mM DTT, 2.5% glycerol, 50 ng/uL poly(dI-dC), 0.05% NP-40; 20 fmol probe, 2.9-3.9 ug protein in 20 uL; recombinant protein; protein details: N-terminal His6 (pLATE51); label: 5' biotin
T2 sequence (looked up, limits assumed): T1 sequence (looked up, limits assumed) with H91K

Measured: binding result

GGCATCAATAAACGGGAATCATTCTCGTCTACC (double strand) [Bio-MntH-Fur-box]
no binding: [1]; apo (EDTA + DTT, 95 C) | [1]; holo + EDTA (1 mM) | [2]
